Results from PubChem BioAssay AID651803 (National Center for Advancing Translational Sciences (NCATS), 2012).
Out of some 1,200 compounds screened, fewer than 10 were called active. The call rests on the fitted dose curve; in most records, active means well fitted curve in the direction sought with a large enough effect; inconclusive means small, poorly fitted or top-dose-only effect, or another doubt; inactive means no such curve, though single readings can be large or run the other way. This is one part of the list.

Sequences of proteins named here, by UniProt entry; tags and fusion partners are left off. A change or cut given only in a name is not applied to a line headed by its entry.
UniProt P11308: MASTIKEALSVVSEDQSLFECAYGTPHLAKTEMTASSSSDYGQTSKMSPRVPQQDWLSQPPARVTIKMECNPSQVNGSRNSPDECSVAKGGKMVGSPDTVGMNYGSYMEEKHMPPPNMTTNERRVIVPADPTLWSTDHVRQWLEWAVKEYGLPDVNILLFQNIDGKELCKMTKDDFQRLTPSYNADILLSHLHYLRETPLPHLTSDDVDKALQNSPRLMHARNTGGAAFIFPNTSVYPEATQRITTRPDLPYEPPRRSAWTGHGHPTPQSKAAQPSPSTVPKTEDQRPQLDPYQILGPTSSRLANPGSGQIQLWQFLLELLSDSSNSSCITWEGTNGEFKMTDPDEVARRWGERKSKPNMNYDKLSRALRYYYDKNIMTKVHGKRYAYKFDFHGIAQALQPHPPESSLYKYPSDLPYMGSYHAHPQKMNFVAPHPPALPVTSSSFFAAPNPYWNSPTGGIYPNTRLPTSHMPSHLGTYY

These compounds were tested against Transcriptional regulator ERG (Homo sapiens) (UniProt P11308) (assay: qHTS for Small Molecule Inhibitors of the ERG Ets/DNA interaction: TR assay against cherry picks). Details: ERG Ets domain-DNA fluorescence polarization, Texas red probe; at 154 µM (top of the series).
In short: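 Polarization read sequentially for fluorescein (ex 480/em 535 nm) and Texas red (ex 555/em 632 nm) probes, 5 nM and 100 nM solutions, displaced from His-ERG Ets domain (1 uM solution), pH 7.5 Tris/KCl/EDTA/DTT buffer.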
Further: % of control where 0% means no effect.

Activity change, negative = inhibition, inactive:
COc1ccc(OC)c(/C=N/NC(=O)CCCC(=O)Nc2cccc(Br)c2)c1 -4.73%
COc1ccc(Nc2ncnc3sccc23)cc1OC -6.91%
OCCC1CN(CCCc2ccccc2)CCN1CCc1ccccc1 (stereo unspecified) 2.73%
N#C/C(=C\c1c(N2CCC(C(N)=O)CC2)nc2ccccn2c1=O)C(=O)NCc1ccco1 3.81%
COc1ccc(CNC(=O)COC(=O)CCOc2ccccc2)cc1 3.98%
CCOC(=O)N1CCC(NC(=O)Cc2ccccc2)CC1 1.65%
O=c1c(-c2ccccc2)c[nH]n1-c1cccc([N+](=O)[O-])c1 -1.99%
CC(C)Oc1cccc(C(=O)C2CCCN(Cc3ccc4nonc4c3)C2)c1 (stereo unspecified) -8.31%
CCN(C(=O)CSc1nc2cc(C(=O)O)ccc2c(=O)n1Cc1ccccc1)c1ccccc1 0.985%
O=C(COC(=O)c1ccc(F)cc1F)c1ccc[nH]1 -11.5%
Oc1ccc(NCc2ccccc2OCc2ccccc2F)cc1 -10.1%
CCCCC(CC)COC(=O)CCCCC(=O)OCC(CC)CCCC (stereo unspecified) -14.4%
COC(=O)c1c(C)[nH]c(C(=O)C(C)OC(=O)c2cc(C)oc2C)c1C (stereo unspecified) -1.22%
CCN(CC)Cc1c(O)c(Cl)cc2c(C)cc(=O)oc12 3.38%
O=C(NNc1cc(N2CCOCC2)nc(N2CCOCC2)n1)c1ccc([N+](=O)[O-])cc1 1.37%
Cc1ccc(C(=O)Nc2ccc(C(=O)N/N=C/c3c[nH]c4ccccc34)cc2)cc1 -28.5%
CCCCc1nc2sc3c(=O)[nH]c(=S)[nH]c3c2c2c1CCC2 14.6%
CS(=O)(=O)NN1C(=O)c2ccccc2NC1c1cccc(O)c1 (stereo unspecified) -7.46%
FC(F)(F)COc1cc(-c2nnc(SCc3ccccc3)n2Cc2ccco2)cc(OCC(F)(F)F)n1 -11.3%
COc1ccc(C(=O)NCc2csc(C)n2)cc1OC1CCN(C(C)=O)CC1 -0.898%
O=C(NCCCN1CCOCC1)c1ccc(CSc2ccc(Cl)cc2)cc1 -2.11%
Cc1ccc(NS(=O)(=O)c2ccc(NC(=O)c3ccccc3C(=O)O)cc2)cc1C 2.33%
CN(CCO)C1=NS(=O)(=O)c2cc([N+](=O)[O-])ccc21 -10.2%
Cc1ccc2sc(NNC(=O)c3ccc4c(c3)OCCO4)nc2c1C 3.44%
COc1cccc2c1C(=N)c1c(O)c3c(c(O)c1C2=O)CC(O)(C(C)=O)CC3OC1CC(N)C(O)C(C)O1 (stereo unspecified) 10.9%
NS(=O)(=O)c1ccc(NC(=O)COC(=O)c2c3c(nc4ccccc24)/C(=C\c2ccc4c(c2)OCO4)CCC3)cc1 -7.4%
NS(=O)(=O)c1cccc(NC(=O)COC(=O)CSCc2ccccc2)c1 -2.35%
c1ccc(Oc2ncnc3ccccc23)cc1 -7.4%
O=C(O)CC(CC(=O)N1CCOCC1)c1ccccc1 (stereo unspecified) 1.81%
COc1cccc(C(=O)c2c(C)c(CCC#N)n3ccccc23)c1OC 2.32%
Oc1ccc(N=Cc2sc3ccccc3c2Cl)cc1 -8.52%
O=C(N/N=C/c1cc2c3c(c1O)CCCN3CCC2)c1ccccc1O 52.4%
COc1cccc(CCN2C(=O)C(=O)N([C@@H](CNCc3ccccc3)Cc3ccccc3F)C[C@@H]2C(C)(C)C)c1 -18.6%
CCCC(=O)Nn1cnc2c(c1=O)C1(CCCCC1)Cc1ccccc1-2 0.839%
O=C(c1ccccc1)N1C(=O)C(c2ccccc2)Oc2ccccc21 (stereo unspecified) -2.58%
CCCCCC(=O)NC(=S)Nc1cccc(-c2nc3ncccc3o2)c1 -5.77%
Cc1ccc(S(=O)(=O)N2CCOCC2)cc1NC(=O)CSc1nccn1C -17.4%
COc1ccccc1CN(C)C(=O)C(NC(=O)Cc1cccc2ccccc12)C(C)C (stereo unspecified) -0.0885%
CCOc1ccccc1C1CC(c2ccc(Br)cc2)Nc2nc(N)nn21 (stereo unspecified) -19.2%
CCCCc1nn2c(=O)cc(COC(=O)c3ccccc3NC(=O)C(C)(C)C)nc2s1 5.07%
Oc1ccc(NCc2cccc(OCc3ccccc3)c2)cc1 -13%
CC1(C)C2CCC1(CS(=O)(=O)Nc1ccccc1)C(=O)C2 (stereo unspecified) 3.72%
CC(=O)Nc1nnc(-c2c(-c3c(Cl)cccc3Cl)noc2C)o1 1.97%
Cc1ccc(-n2c3c(c(=O)[nH]c2=O)C(NS(=O)(=O)c2ccc(Cl)cc2)(C(F)(F)F)C(=O)N3)cc1 (stereo unspecified) -5.47%
CC(=O)c1cccc(NC(=O)C(C)OC(=O)CCc2nc3ccccc3c(=O)[nH]2)c1 (stereo unspecified) -4.59%
CCCCn1c(=O)[nH]c2nc3cc(N)ccc3nc2c1=O 15.6%
O=C(CCNC(=O)c1ccccc1Cl)NCCCSc1ccccc1 3.19%
Cc1cccc(/C=N/NC(=O)NC23CC4CC(CC(C4)C2)C3)n1 18%
Cc1ccc2c(c1)N(CCC(=O)NC1CCCCC1)C(=O)CO2 -14.2%
Cc1cccc(NC(=O)c2cc3ccccc3nc2C)c1 -2.6%
c1ccc(-c2cc3ccccc3[nH]2)cc1 2.83%
COc1ccc(-n2c(SCC(C)=O)nc3sc(C)c(C)c3c2=O)cc1 16.6%
CCCCn1c(N)c(N(CCOC)C(=O)c2ccc(S(=O)(=O)N3CCCCC3)cc2)c(=O)[nH]c1=O -2.18%
COc1cccc(N/C=C/c2onc(C)c2[N+](=O)[O-])c1 1.71%
Cc1cccc(CC(=O)NCCn2c(C)cc3ccccc32)c1 1.49%
Cc1ccc(NC(=O)CN2C(=O)C3CC=C(Cl)CC3C2=O)cc1 (stereo unspecified) 1.72%
O=C(C1CCN(CCc2ccccc2)CC1)N1CCOCC1 -9.51%
COc1ccc(COC(=O)C2=C(C)NC(=O)NC2c2ccccc2)cc1 (stereo unspecified) -12.2%
CCOc1ccc(S(=O)(=O)N2CCC(C(=O)NCC3CCCO3)CC2)cc1C (stereo unspecified) -1.71%
Cc1c(OC(C(=O)O)c2ccccc2)ccc2c(-c3ccccc3)cc(=O)oc12 (stereo unspecified) 3.4%
Cc1cccc(NC(=O)NCCCCc2ccccc2)c1 -2.69%
CN1C(=O)NC(NC(=O)c2ccncc2)(C(F)(F)F)C1=O (stereo unspecified) -2.46%
COc1ccc(/C=N/n2c(-c3n[nH]c4c3CCC4)n[nH]c2=S)cc1 -2.85%
CCN1CCCC(OC(=O)Nc2ccccc2)C1 (stereo unspecified) -1.85%
Cc1ccc([C@@H]2C3COCC=C3C(C#N)=C(N)C2(C#N)C#N)o1 (stereo partly specified) 70.2%
Cc1cc(C)c(S(=O)(=O)N2CCN(C(=O)N3CCOCC3)CC2)c(C)c1 3.47%
CC1(C)CC(=O)C2=C(C1)OC(=O)CC2c1cccs1 (stereo unspecified) -15.7%
COc1ccc(NC(=O)C2=NN(c3ccccc3)C(=O)CC2)cn1 -2.68%
CCn1cc(C(=O)N2CCCC(N3CCN(c4cccc(C(F)(F)F)c4)CC3)C2)cn1 (stereo unspecified) -9.8%
O=C(CCn1cccc1)NCc1ccccc1 3.42%
COc1cc(CNc2ccc(O)cc2)cc(Br)c1OCc1ccccc1 -2.9%
O=C(NCCSc1c[nH]c2ccccc12)c1ccc(Cl)cc1 -20.7%
C=CCn1c2ccccc2c2nnc(SCC(=O)NC(C(=O)OC)C(C)C)nc21 (stereo unspecified) 3.85%
O=C(CSc1nc2ccccc2o1)N/N=C/c1ccc(C(=O)O)cc1 -6.83%
Cc1ccccc1C(=O)Oc1c(Sc2ccccc2)c(C)nn1C(C)(C)C -15.2%
Nc1ccc(S(=O)(=O)Nc2ncccn2)cc1 -5.69%
CCCCN(C(=O)Cc1ccc(S(=O)(=O)N2CCOCC2)s1)c1c(N)n(CCCC)c(=O)[nH]c1=O 3.08%
COC(=O)C/C(C)=N/Nc1ccc(S(=O)(=O)N2CCCC2)cc1[N+](=O)[O-] -13.7%
CN(C)c1ccc(/C=C(\C#N)c2nc(-c3ccc(Cl)c(Cl)c3)cs2)cc1 -2.06%
COc1cccc(NC(=O)C2CCN(c3nn4cc(-c5ccc(F)cc5)nc4s3)CC2)c1 -10.8%
CC(OC(=O)C1CCN(S(=O)(=O)c2ccccc2C(F)(F)F)CC1)C(=O)N(C)Cc1ccccc1 (stereo unspecified) 1.27%
Cc1cccc(-n2c(CNC(=O)c3ccc(S(=O)(=O)N4CCCC4)cc3)n[nH]c2=S)c1 0.804%
CCc1cc(C(=O)OC)c(NC(=O)CN2CCN(C(=O)C3CCCO3)CC2)s1 (stereo unspecified) -6.31%
Cc1cc(C(=O)COc2ccccc2C(N)=O)c(C)n1C 1.6%
Cc1cc(/C=C(\C#N)C(=O)Nc2ccccc2)c(C)n1-c1ccc(C(=O)O)cc1 -0.126%
COc1ccc(C)cc1NS(=O)(=O)c1cccc2nonc12 1.7%
COCCNC(=O)Cn1c(=O)n(CCCC(=O)NCc2ccc3c(c2)OCO3)c(=O)c2sccc21 -16.3%
CC(=O)c1cccc(S(=O)(=O)N2CCC(c3nc4ccccc4[nH]3)CC2)c1 2.17%
CCOC(=O)COc1ccc(/C=C2/C(=O)NN(c3ccc(F)cc3)C2=O)cc1OC 4.26%
COC(=O)c1ccc(NC(=S)N2CCN(C(=O)c3ccco3)CC2)cc1 -6.35%
CCn1cc(S(=O)(=O)Nc2ccc(Cl)cc2F)cn1 -16.6%

Quoted from the listing (4 entries):
Activity change, negative = inhibition, inactive:
COc1cccc2c1C(=N)c1c(O)c3c(c(O)c1C2=O)CC(O)(C(C)=O)CC3OC1CC(N)C(O)C(C)O1 (stereo unspecified) 10.9%
NS(=O)(=O)c1ccc(NC(=O)COC(=O)c2c3c(nc4ccccc24)/C(=C\c2ccc4c(c2)OCO4)CCC3)cc1 -7.4%
NS(=O)(=O)c1cccc(NC(=O)COC(=O)CSCc2ccccc2)c1 -2.35%
c1ccc(Oc2ncnc3ccccc23)cc1 -7.4%

Fetched one by one from above, two records:
Activity change, negative = inhibition, inactive:
O=C(C1CCN(CCc2ccccc2)CC1)N1CCOCC1 -9.51%
FC(F)(F)COc1cc(-c2nnc(SCc3ccccc3)n2Cc2ccco2)cc(OCC(F)(F)F)n1 -11.3%
